Experimental data published in PMC6643034.

Key:
[1] = biological target: T1, P1142_AMBCA (Amblyomma cajennense); test: BLI; cross-binding screen on OctetRed; evasin held on a nickel-coated biosensor through its C-terminal His tag; each human chemokine at 300 nM; both purified
T1 sequence: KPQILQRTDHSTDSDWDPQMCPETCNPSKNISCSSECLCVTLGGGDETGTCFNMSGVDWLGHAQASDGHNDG

[2] = biological target: T2, P1126_AMBCA (Amblyomma cajennense); test: as above
T2 sequence: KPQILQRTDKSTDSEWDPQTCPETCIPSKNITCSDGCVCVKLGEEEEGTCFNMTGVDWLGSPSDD

[3] = biological target: T3, P1172_IXORI (Ixodes ricinus) (UniProt V5I2G9); test: as above
T3 sequence: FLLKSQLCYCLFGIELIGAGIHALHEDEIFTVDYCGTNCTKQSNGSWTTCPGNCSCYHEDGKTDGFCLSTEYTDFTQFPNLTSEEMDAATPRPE

[4] = biological target: T4, EVA3_RHISA (Rhipicephalus sanguineus) (UniProt P0C8E8); test: as above
T4 sequence: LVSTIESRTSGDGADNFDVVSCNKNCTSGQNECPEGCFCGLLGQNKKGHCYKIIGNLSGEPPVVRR

[5] = biological target: T5, Evasin 3 (EVA3) (Rhipicephalus sanguineus) (UniProt P0C8E8); test: BLI; OctetRed; evasin held on a nickel-coated biosensor by its C-terminal His tag; cross-binding screen of a panel of human chemokines at 300 nM; both purified
T5 sequence (chain, glycosylated (periodic acid–Schiff staining)): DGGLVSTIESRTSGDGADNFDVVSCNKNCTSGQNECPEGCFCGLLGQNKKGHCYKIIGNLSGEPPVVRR

Row | Substance | binding [1] | binding [2] | binding [3] | binding [4] | binding [5]
1 | CCL14 (human) (ligand) | no binding (tested: 300 nM) | no binding (tested: 300 nM) | no binding (tested: 300 nM) | no binding (tested: 300 nM) | –
2 | CCL15 (human) (ligand) | no binding (tested: 300 nM) | no binding (tested: 300 nM) | no binding (tested: 300 nM) | no binding (tested: 300 nM) | –
3 | CCL23 (human) (ligand) | no binding (tested: 300 nM) | no binding (tested: 300 nM) | no binding (tested: 300 nM) | no binding (tested: 300 nM) | –
4 | CXCL4 (human) (ligand) | binds | binds | no binding (tested: 300 nM) | no binding (tested: 300 nM) | no binding (tested: 300 nM)
5 | CXCL6 (human) (ligand) | – | binds | no binding (tested: 300 nM) | – | –
6 | CXCL7 (human) (ligand) | binds | binds | no binding (tested: 300 nM) | no binding (tested: 300 nM) | –
7 | CXCL8 (human) (ligand) | – | no binding (tested: 300 nM) | binds | – | –

No constants are given. Whether binding was seen depends on the method and setting. For some of these results: A result given as binding can be weak or reduced; the word gives no strength. For some of these results: Tags and fused reporters may be left off the sequences shown.
